Literature values as cited in patent US20160010068A1, “FUSION POLYNUCLEOTIDES AND FUSION POLYPEPTIDES ASSOCIATED WITH CANCER AND PARTICULARLY MELANOMA AND THEIR USES AS THERAPEUTIC AND DIAGNOSTIC TARGETS” (priority 2013, published 2016).
For at least one compound, name, drawing or mass did not settle the structure.

System: melanoma
Conditions: at the maximum tolerated dose, twice daily; cited from earlier work

Structure (SMILES): CCCS(=O)(=O)Nc1ccc(F)c(C(=O)c2c[nH]c3ncc(-c4ccc(Cl)cc4)cc23)c1F [vemurafenib]
- efficacy against melanoma patients: effective
